The other results are listed elsewhere or left out.
Tests used:
Test in all cases: log2 fold change, soluble protein after heating vs DMSO (PISA); higher = thermal stabilisation; K562 lysate, 10 uM; active = over 0.2 and 3.5 SD of the protein, either way, in both replicates (recomputed)
[1] = compound: C#Cc1cccc(Nc2ncnc3cc(OCCOC)c(OCCOC)cc23)c1 [erlotinib]
How it was run: (§1)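 Pellets of K562 cells were dounce-homogenised in PBS pH 7.4 with 1 mM MgCl2, and the crude extract was held at 1 mg/mL protein for a 30 min treatment with 10 μM compound. Aliquots were heated for 3 min over 48°C-58°C and pooled before NP-40 was added to 0.5% at 4°C. The supernatant from 21,000xg for 90 min was quantified by TMTpro 16plex LC-MS/MS with channel sums equalised. Values are reported from duplicates as log-two fold change in thermal stability relative to solvent controls.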

Chains of the proteins cited; added tags and fusions are not shown. Lines headed by an entry give the natural chain unless they say otherwise; changes in a name come on top.
UniProt Q969G3, whole entry, looked up: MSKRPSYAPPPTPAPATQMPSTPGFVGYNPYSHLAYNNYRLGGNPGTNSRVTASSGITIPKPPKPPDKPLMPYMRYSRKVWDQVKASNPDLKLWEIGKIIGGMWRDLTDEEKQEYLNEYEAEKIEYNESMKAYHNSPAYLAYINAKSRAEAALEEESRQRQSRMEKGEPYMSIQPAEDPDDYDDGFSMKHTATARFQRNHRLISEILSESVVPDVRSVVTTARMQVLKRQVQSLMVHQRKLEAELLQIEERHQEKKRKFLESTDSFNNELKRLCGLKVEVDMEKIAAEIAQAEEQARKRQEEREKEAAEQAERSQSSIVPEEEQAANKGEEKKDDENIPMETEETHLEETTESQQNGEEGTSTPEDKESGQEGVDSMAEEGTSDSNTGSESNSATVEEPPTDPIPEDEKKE
UniProt P53814: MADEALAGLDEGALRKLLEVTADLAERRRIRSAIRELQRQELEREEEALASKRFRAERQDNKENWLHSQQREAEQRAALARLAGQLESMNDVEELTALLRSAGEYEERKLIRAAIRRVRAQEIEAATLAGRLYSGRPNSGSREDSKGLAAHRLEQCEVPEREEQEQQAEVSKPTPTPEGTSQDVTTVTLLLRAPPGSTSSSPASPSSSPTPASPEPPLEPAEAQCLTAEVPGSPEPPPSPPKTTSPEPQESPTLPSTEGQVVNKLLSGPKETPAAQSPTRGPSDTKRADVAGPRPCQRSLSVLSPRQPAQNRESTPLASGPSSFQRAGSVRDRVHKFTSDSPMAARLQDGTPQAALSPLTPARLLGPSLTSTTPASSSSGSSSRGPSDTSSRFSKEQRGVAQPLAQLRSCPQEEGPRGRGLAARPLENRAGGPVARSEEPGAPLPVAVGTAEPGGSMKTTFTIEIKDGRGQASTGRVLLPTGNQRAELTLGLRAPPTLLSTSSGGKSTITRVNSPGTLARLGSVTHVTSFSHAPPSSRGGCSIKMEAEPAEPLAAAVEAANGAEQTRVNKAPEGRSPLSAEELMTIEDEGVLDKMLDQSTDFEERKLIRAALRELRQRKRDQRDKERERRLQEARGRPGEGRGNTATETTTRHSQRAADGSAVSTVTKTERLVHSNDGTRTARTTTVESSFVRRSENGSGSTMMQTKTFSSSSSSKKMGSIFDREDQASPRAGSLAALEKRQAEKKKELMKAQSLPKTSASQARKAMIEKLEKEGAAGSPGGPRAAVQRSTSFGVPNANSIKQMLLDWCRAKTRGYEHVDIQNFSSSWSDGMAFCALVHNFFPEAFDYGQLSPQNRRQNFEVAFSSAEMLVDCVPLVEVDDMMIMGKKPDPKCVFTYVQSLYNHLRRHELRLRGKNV
UniProt Q9UPR3: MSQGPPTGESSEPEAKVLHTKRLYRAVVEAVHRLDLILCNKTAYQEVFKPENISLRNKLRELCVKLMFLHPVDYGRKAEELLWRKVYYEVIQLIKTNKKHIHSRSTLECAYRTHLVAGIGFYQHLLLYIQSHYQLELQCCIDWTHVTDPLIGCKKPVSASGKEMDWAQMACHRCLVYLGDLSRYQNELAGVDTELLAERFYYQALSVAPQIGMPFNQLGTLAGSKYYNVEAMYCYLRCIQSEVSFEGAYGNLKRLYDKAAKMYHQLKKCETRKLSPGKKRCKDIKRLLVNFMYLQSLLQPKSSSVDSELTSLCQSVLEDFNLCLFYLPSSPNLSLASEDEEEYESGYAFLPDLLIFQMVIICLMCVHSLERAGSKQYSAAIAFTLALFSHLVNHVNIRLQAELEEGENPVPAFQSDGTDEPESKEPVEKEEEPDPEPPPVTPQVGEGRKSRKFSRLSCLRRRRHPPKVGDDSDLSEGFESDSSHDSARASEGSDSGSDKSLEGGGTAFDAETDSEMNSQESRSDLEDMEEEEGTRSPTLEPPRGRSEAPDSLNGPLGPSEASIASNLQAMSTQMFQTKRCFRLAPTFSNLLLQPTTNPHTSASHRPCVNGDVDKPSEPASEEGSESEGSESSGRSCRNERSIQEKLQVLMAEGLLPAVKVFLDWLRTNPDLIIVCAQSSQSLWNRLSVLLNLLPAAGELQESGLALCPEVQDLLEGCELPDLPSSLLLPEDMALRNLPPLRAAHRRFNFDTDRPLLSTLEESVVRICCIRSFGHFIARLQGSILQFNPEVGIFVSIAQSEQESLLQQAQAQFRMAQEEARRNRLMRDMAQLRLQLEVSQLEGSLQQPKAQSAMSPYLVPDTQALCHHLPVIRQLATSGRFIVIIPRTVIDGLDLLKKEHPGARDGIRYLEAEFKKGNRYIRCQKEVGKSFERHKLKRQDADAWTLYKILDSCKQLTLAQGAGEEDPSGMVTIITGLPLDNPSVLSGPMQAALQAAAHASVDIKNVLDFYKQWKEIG
UniProt Q96H20: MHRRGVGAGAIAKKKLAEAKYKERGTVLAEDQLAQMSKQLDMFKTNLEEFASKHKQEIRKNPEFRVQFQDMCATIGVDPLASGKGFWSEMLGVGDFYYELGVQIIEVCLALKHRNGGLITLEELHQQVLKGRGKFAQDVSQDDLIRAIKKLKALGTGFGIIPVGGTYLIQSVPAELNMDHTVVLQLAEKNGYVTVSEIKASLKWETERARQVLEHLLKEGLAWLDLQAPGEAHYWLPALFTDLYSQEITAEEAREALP
UniProt P09012, whole entry, looked up: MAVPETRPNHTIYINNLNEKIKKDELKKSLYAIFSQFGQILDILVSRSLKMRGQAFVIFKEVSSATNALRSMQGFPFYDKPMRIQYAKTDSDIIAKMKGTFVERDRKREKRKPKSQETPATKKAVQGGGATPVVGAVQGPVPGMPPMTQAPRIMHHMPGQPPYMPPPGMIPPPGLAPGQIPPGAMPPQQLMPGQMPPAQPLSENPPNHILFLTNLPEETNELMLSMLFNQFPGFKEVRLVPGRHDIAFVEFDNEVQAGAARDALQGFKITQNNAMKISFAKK
UniProt Q96Q15: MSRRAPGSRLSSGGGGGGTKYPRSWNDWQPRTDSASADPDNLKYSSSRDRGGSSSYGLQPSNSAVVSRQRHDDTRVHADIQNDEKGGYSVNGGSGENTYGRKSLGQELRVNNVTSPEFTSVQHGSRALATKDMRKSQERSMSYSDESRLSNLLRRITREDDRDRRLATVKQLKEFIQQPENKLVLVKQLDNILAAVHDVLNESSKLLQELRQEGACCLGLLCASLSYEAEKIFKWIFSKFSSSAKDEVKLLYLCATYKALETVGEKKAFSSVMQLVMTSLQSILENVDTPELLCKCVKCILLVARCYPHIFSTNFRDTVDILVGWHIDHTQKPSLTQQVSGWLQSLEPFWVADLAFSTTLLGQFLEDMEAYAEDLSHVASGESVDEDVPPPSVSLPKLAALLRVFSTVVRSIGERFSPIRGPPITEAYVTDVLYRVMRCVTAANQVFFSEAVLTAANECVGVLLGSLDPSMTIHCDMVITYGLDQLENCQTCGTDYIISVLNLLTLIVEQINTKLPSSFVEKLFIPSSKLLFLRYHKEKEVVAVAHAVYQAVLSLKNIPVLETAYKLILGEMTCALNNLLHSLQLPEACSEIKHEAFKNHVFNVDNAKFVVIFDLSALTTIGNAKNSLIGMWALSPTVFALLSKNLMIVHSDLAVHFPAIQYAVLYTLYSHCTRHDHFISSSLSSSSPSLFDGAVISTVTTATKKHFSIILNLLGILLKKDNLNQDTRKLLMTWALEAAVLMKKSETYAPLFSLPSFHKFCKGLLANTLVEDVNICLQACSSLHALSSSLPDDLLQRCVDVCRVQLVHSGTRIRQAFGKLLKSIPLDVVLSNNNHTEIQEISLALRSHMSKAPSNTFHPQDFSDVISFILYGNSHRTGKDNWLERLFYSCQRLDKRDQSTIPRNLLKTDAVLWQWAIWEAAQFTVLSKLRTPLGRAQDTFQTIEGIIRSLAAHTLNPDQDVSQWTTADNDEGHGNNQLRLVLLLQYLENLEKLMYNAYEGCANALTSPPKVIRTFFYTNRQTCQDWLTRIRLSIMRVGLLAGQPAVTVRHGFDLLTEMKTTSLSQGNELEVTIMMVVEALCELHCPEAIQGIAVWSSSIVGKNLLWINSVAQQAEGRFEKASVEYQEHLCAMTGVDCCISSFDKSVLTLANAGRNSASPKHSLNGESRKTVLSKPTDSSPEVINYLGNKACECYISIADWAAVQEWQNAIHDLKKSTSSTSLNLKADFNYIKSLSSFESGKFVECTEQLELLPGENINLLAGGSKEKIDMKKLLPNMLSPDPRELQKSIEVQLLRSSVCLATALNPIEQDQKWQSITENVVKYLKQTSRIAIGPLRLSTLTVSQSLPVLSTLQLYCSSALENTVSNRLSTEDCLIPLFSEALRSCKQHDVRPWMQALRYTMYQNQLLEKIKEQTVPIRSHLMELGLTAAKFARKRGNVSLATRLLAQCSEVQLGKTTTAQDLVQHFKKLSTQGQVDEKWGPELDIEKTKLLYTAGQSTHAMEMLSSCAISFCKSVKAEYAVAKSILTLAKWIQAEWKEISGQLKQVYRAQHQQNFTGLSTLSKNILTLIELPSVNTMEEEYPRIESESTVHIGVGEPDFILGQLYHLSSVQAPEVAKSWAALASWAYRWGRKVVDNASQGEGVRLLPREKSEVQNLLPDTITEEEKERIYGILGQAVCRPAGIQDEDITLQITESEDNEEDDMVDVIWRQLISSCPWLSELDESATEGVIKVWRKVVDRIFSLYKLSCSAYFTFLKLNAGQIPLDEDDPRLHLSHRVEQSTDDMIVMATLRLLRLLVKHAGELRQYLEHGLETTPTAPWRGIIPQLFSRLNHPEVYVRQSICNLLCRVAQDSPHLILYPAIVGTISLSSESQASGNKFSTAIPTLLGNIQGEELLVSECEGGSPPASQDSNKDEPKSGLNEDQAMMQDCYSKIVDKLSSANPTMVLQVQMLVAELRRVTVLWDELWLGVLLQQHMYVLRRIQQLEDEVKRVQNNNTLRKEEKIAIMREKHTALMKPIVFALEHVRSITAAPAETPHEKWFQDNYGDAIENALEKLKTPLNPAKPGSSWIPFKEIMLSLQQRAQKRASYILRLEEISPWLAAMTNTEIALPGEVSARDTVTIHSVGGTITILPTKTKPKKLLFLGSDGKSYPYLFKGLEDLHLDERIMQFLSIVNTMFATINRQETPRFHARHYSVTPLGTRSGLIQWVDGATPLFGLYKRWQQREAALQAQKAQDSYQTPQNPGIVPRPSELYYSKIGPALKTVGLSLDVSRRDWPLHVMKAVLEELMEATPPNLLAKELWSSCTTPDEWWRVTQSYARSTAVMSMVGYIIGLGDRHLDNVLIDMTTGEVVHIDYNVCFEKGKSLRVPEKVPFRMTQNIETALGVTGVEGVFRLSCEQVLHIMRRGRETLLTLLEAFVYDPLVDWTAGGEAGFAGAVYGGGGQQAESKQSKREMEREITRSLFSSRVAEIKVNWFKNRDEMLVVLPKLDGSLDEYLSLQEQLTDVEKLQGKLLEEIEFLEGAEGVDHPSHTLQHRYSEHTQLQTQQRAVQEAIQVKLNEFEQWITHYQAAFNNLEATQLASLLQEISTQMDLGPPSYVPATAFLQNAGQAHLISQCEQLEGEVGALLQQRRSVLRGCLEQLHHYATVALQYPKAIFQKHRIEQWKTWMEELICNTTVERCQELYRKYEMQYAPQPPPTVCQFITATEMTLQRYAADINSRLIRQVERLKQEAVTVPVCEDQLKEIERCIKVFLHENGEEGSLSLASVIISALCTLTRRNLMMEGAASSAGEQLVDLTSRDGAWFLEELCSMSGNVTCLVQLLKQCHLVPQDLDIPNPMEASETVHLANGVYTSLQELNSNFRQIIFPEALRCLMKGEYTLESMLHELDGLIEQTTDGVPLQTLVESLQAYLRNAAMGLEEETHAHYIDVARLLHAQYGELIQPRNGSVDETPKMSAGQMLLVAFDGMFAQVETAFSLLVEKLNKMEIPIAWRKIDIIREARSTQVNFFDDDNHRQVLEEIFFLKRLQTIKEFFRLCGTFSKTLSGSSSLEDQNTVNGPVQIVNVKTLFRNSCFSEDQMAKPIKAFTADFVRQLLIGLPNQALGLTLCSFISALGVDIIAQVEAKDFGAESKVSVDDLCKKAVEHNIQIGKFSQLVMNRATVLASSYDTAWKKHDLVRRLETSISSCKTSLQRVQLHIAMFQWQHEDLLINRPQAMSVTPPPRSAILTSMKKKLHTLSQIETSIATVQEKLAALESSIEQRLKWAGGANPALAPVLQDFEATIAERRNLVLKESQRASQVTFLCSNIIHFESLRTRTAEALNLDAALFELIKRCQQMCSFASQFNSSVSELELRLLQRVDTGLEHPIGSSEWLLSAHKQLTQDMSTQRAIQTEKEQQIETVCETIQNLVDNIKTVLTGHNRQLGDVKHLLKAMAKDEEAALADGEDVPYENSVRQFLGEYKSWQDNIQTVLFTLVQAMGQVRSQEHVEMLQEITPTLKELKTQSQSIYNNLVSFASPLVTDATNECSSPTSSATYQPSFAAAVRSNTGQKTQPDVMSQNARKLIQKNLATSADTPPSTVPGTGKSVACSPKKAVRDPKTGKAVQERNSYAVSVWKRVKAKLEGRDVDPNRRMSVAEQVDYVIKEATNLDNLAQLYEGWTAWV

[2] = compound: C/C(=N\NC(=O)C1=CC(=CC=C1)S(=O)(=O)N2CCOCC2)/C3=C(C=CC(=C3)Cl)O
How it was run: as §1

[3] = compound: C1=CC(=CC=C1C2=NC3=C(N2)C=C(C=C3)C(=O)N)OC4=CC=C(C=C4)Cl
How it was run: as §1

[4] = compound: C1=CC2=C(C=CC(=C2)/C=C\3/C(=O)NC(=NCC4=CC=CS4)S3)N=C1
How it was run: as §1

[5] = compound: C1=CC2=NC=CN=C2C=C1/C=C/3\C(=O)NC(=O)S3
How it was run: as §1

[6] = compound: C1=CC=C(C=C1)C2=NC(=C(N2)C3=CC=NC=C3)C4=CC(=C(C=C4)Cl)O
How it was run: as §1

[7] = compound: C1=CC=C2C(=C1)C3=NNC4=CC=CC(=C43)C2=O
How it was run: as §1

[8] = compound: C1CCN(C1)C(=O)NC2=CC=CC(=C2)NC3=NC=C(C(=N3)NCCC4=CN=CN4)Br
How it was run: as §1

[9] = compound: C1CN(CCC1(CC2=CC=C(C=C2)Cl)N)C3=NC=NC4=C3C=CN4
How it was run: as §1

[10] = compound: C1COCCN1CCN2C3=CC=CC=C3N=C2NC(=O)C4=CC(=CC=C4)[N+](=O)[O-] [IRAK-1-4 Inhibitor I]
How it was run: as §1

Measured: log2 fold change

SMARCE1 (UniProt Q969G3)
inactive: [1] -0.027 | [2] 0.003 | [3] 0.028 | [4] 0.011 | [5] -0.004 | [6] -0.041 | [7] -0.029 | [8] -0.032 | [9] -0.004 | [10] 0.001

SNRK (UniProt Q9NRH2)
inactive: [1] -0.505 | [2] -0.351 | [3] -0.054 | [4] -0.081 | [5] -0.019 | [6] 0.038 | [7] 0.16 | [8] -0.011 | [9] -0.094 | [10] -0.078

SMC5 (UniProt Q8IY18)
inactive: [1] 0.032 | [2] 0.031 | [3] 0.056 | [4] 0.009 | [5] -0.018 | [6] 0.013 | [7] -0.04 | [8] -0.031 | [9] -0.016 | [10] 0.043

SMG6 (UniProt Q86US8)
inactive: [1] -0.038 | [2] 0.026 | [3] 0.012 | [4] 0.009 | [5] 0.021 | [6] 0 | [7] -0.092 | [8] -0.04 | [9] -0.005 | [10] 0.026

SP1 (UniProt P08047)
inactive: [1] -0.012 | [2] -0.04 | [3] 0.053 | [4] 0.093 | [5] -0.047 | [6] 0.007 | [7] 0.04 | [8] 0.004 | [9] 0.013 | [10] 0.034

SNRPA1 (UniProt P09661)
inactive: [1] -0.047 | [2] 0.042 | [3] -0.012 | [4] 0.008 | [5] -0.007 | [6] -0.034 | [7] -0.001 | [8] -0.013 | [9] -0.022 | [10] -0.01

SNX14 (UniProt Q9Y5W7)
inactive: [1] 0.121 | [2] -0.02 | [3] 0.108 | [4] 0.036 | [5] 0.007 | [6] 0.094 | [7] -0.032 | [8] -0.013 | [9] 0.124 | [10] 0.159

SOAT1 (UniProt P35610)
inactive: [1] 0.06 | [2] -0.007 | [3] -0.042 | [4] 0 | [5] -0.048 | [6] 0.056 | [7] -0.058 | [8] -0.056 | [9] -0.019 | [10] 0

SNRNP27 (UniProt Q8WVK2)
inactive: [1] -0.119 | [2] -0.048 | [3] 0.014 | [4] 0.038 | [5] -0.053 | [6] -0.022 | [7] 0.001 | [8] 0.002 | [9] -0.013 | [10] 0.006

SNX4 (UniProt O95219)
inactive: [1] -0.046 | [2] 0.049 | [3] 0.004 | [4] -0.045 | [5] -0.013 | [6] 0.035 | [7] -0.055 | [8] 0.007 | [9] 0.008 | [10] 0.059

SMTN isoform 6 (UniProt P53814)
inactive: [1] -0.033 | [2] 0.081 | [3] -0.01 | [4] 0.035 | [5] 0.006 | [6] 0.021 | [7] 0.005 | [8] -0.018 | [9] 0.015 | [10] 0.058

SMG5 (UniProt Q9UPR3)
inactive: [1] -0.037 | [2] -0.038 | [3] 0.028 | [4] -0.008 | [5] -0.012 | [6] -0.074 | [7] -0.035 | [8] -0.004 | [9] -0.043 | [10] 0.007

SMC1A (UniProt Q14683)
inactive: [1] -0.011 | [2] 0 | [3] 0.002 | [4] 0.002 | [5] -0.021 | [6] 0.006 | [7] -0.014 | [8] 0.005 | [9] -0.006 | [10] 0.01

SNX12 isoform 1 (UniProt Q9UMY4)
inactive: [1] -0.006 | [2] 0.03 | [3] -0.013 | [4] -0.037 | [5] -0.006 | [6] 0.006 | [7] 0.012 | [8] -0.004 | [9] 0.022 | [10] -0.003

SMARCA5 (UniProt O60264)
inactive: [1] -0.026 | [2] 0.065 | [3] 0.064 | [4] -0.026 | [5] -0.02 | [6] -0.019 | [7] 0 | [8] -0.014 | [9] 0.012 | [10] -0.021

SNAP91 (UniProt O60641)
inactive: [1] -0.053 | [2] -0.092 | [3] 0 | [4] 0.028 | [5] 0.031 | [6] -0.111 | [7] -0.01 | [8] -0.002 | [9] -0.054 | [10] 0.025

SOD1 (UniProt P00441)
inactive: [1] 0.003 | [2] 0.111 | [3] -0.008 | [4] 0.01 | [5] -0.016 | [6] -0.054 | [7] 0.013 | [8] 0.053 | [9] 0.035 | [10] 0.013

SND1 (UniProt Q7KZF4)
inactive: [1] 0.022 | [2] 0.042 | [3] -0.009 | [4] 0.007 | [5] 0.031 | [6] 0.017 | [7] -0.042 | [8] 0.005 | [9] -0.005 | [10] -0.012

SNF8 (UniProt Q96H20)
inactive: [1] 0.004 | [2] -0.028 | [3] -0.027 | [4] 0.014 | [5] -0.019 | [6] 0.049 | [7] -0.049 | [8] 0.01 | [9] 0.025 | [10] -0.008

SMIM12 (UniProt Q96EX1)
inactive: [1] 0.048 | [2] -0.105 | [3] -0.024 | [4] -0.042 | [5] -0.026 | [6] 0.024 | [7] -0.009 | [8] 0.075 | [9] 0.008 | [10] -0.009

SMCR8 (UniProt Q8TEV9)
inactive: [1] 0.018 | [2] 0.148 | [3] -0.01 | [4] -0.03 | [5] -0.049 | [6] -0.014 | [7] -0.096 | [8] 0.059 | [9] -0.037 | [10] 0.01

SORT1 (UniProt Q99523)
inactive: [1] -0.008 | [2] -0.025 | [3] 0.041 | [4] 0.006 | [5] -0.01 | [6] -0.015 | [7] -0.016 | [8] -0.015 | [9] 0.018 | [10] 0.028

SNRPA (UniProt P09012)
inactive: [1] -0.011 | [2] 0.004 | [3] 0.034 | [4] -0.005 | [5] -0.008 | [6] 0.007 | [7] -0.027 | [8] 0.005 | [9] -0.013 | [10] 0

SMIM8 (UniProt Q96KF7)
inactive: [1] -0.057 | [2] 0.005 | [3] 0.028 | [4] 0.004 | [5] -0.004 | [6] -0.137 | [7] 0.028 | [8] 0.026 | [9] 0 | [10] 0.058

SMG9 (UniProt Q9H0W8)
inactive: [1] 0.033 | [2] 0.035 | [3] 0.025 | [4] 0.016 | [5] 0.007 | [6] 0.044 | [7] -0.069 | [8] -0.011 | [9] 0.065 | [10] -0.014

Reprinted at random: 2 entries already listed.
SORT1 (UniProt Q99523)
inactive: [1] -0.008 | [2] -0.025 | [3] 0.041 | [4] 0.006 | [5] -0.01 | [6] -0.015 | [7] -0.016 | [8] -0.015 | [9] 0.018 | [10] 0.028

SMCR8 (UniProt Q8TEV9)
inactive: [1] 0.018 | [2] 0.148 | [3] -0.01 | [4] -0.03 | [5] -0.049 | [6] -0.014 | [7] -0.096 | [8] 0.059 | [9] -0.037 | [10] 0.01

Remaining list, next part

SMU1 isoform 2 (UniProt Q2TAY7)
inactive: [1] 0.14 | [2] -0.041 | [3] 0.046 | [4] -0.028 | [5] 0.048 | [6] 0.25 | [7] -0.146 | [8] -0.217 | [9] 0.016 | [10] 0.043

SMG8 isoform 2 (UniProt Q8ND04)
inactive: [1] 0.057 | [2] 0.021 | [3] -0.166 | [4] -0.047 | [5] 0.016 | [6] -0.065 | [7] 0.007 | [8] -0.011 | [9] 0.014 | [10] -0.115

SMG1 (UniProt Q96Q15)
inactive: [1] -0.004 | [2] -0.031 | [3] -0.046 | [4] 0.009 | [5] 0.029 | [6] -0.022 | [7] -0.072 | [8] -0.036 | [9] 0.024 | [10] -0.008

SMG7 (UniProt Q92540)
inactive: [1] 0.007 | [2] -0.03 | [3] -0.022 | [4] -0.058 | [5] -0.066 | [6] -0.047 | [7] -0.032 | [8] -0.077 | [9] -0.01 | [10] -0.011

Source: the supplement of paper PMC10849652
